Compound in test [1]: ClCC(=O)N[C@@H]1CCCc2ccccc12
Put plainly: log2 mean competition ratio of IA-DTB cysteine labelling (DMSO/compound) (log2 ratio); higher = stronger cysteine engagement by compound. Particulars: treatment time: 4 h, cell line lysate: HEK293T. The procedure:
(§1)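 IA-DTB competitive cysteine chemoproteomics in HEK293T RIPA lysate. Lysates were treated with compound 29 or 30 at 50 or 200 µM for 4 h, then IA-DTB (500 µM, 1 h), trypsin-digested, NeutrAvidin-enriched and analysed by diaPASEF. Competition ratio = intensity DMSO / intensity compound (n=4 treated, n=64 DMSO); binding: mean log2 CR ≥ 1 and p ≤ 0.05 plus QC filters. Target is the cysteine site.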

Compound in test [2]: ClCC(=O)N[C@H]1CCCc2ccccc12
Described as above. Particulars: treatment time: 4 h, cell line lysate: HEK293T. On the procedure:
as §1

The list shows a part of the results. The data scatter; read single values as rough.

As for MRM3 C244 (UniProt Q9HC36), the “log2 mean competition ratio” value in test [1] (50 µM) worked out at 0.623; in test [1] (200 µM), 0.335; in test [2] (50 µM) it was 0.479; in test [2] (200 µM) it was 0.207.
As to MID1 C375 (UniProt O15344), the “log2 mean competition ratio” value was 0.081 in test [1] (50 µM), -0.359 in test [1] (200 µM), -0.118 in test [2] (50 µM) and -0.51 in test [2] (200 µM).
As to MRC2 C983 (UniProt Q9UBG0), the “log2 mean competition ratio” value in test [1] (50 µM) was -0.21; in test [1] (200 µM), 0.117; in test [2] (50 µM), 0.145; in test [2] (200 µM), 0.227.
For MDN1 C95 (UniProt Q9NU22) the same measures were 0.529, 0.233, 0.756 and 0.195.
Taken in the same sequence, the figures for MKI67 C824 (UniProt P46013) were -0.0157, -0.0997, -0.0837 and -0.0952.
For MORC3 C671 (UniProt Q14149), the “log2 mean competition ratio” value in test [1] (50 µM) is -0.35; in test [1] (200 µM) it was -0.201; in test [2] (50 µM), -0.202; in test [2] (200 µM) it was -0.224.
As to MED24 C218, the “log2 mean competition ratio” value was 0.00359 in test [1] (50 µM), 0.0146 in test [1] (200 µM), -0.194 in test [2] (50 µM) and 0.0477 in test [2] (200 µM).
On to MORC4 C116, for which the “log2 mean competition ratio” value was 0.214 in test [1] (50 µM), 0.0684 in test [1] (200 µM), -0.195 in test [2] (50 µM) and 0.13 in test [2] (200 µM).
As to MED12 C997 (UniProt Q93074), the “log2 mean competition ratio” value in test [1] (50 µM) was -0.0405; in test [1] (200 µM) it was -0.393; in test [2] (50 µM), 0.0364; in test [2] (200 µM), 0.0658.
On to MED23 C1090 (UniProt Q9ULK4), for which the “log2 mean competition ratio” value in test [1] (50 µM) is 0.0378; in test [1] (200 µM), -0.0466; in test [2] (50 µM) it was -0.0291; in test [2] (200 µM), -0.0745.
Consider MED23 C222 (UniProt Q9ULK4), for which the “log2 mean competition ratio” value is -0.0147 in test [1] (50 µM), 0.163 in test [1] (200 µM), 0.311 in test [2] (50 µM) and 0.187 in test [2] (200 µM).
In the case of MLXIP C183 (UniProt Q9HAP2), the “log2 mean competition ratio” value was 0.567 in test [1] (50 µM), 0.127 in test [1] (200 µM), -0.22 in test [2] (50 µM) and 0.217 in test [2] (200 µM).
Consider MKRN2 C337 (UniProt Q9H000), for which the “log2 mean competition ratio” value in test [1] (50 µM) is -0.00443; in test [1] (200 µM), -0.15; in test [2] (50 µM) it was 0.186; in test [2] (200 µM), -0.0805.
For MEX3C C235 (UniProt Q5U5Q3) the same measures were -0.503, 0.248, -0.327 and 0.311.
As to MIF C81 (UniProt P14174), the “log2 mean competition ratio” value in test [1] (50 µM) is -0.0952; in test [1] (200 µM), 0.247; in test [2] (50 µM) it was -0.643; in test [2] (200 µM), -1.73.
In the case of MIDEAS C442, A0A1C7CYX1, the “log2 mean competition ratio” value in test [1] (50 µM) was -0.0236; in test [1] (200 µM), 0.11; in test [2] (50 µM), -0.000751; in test [2] (200 µM) it was 0.209.
Taken in the same sequence, the figures for MLLT6 C820 were -0.191, -0.141, 0.0969 and -0.156.
For MELK C413 (UniProt Q14680) the same measures were -0.154, -0.0191, 0.0738 and 0.0929.
As for MIEF1 C165, the “log2 mean competition ratio” value in test [1] (50 µM) is -0.154; in test [1] (200 µM), -0.0276; in test [2] (50 µM), -0.0181; in test [2] (200 µM) it was -0.0301.
On to MDN1 C4192 (UniProt Q9NU22), for which the “log2 mean competition ratio” value in test [1] (50 µM) is -0.0895; in test [1] (200 µM), -0.0136; in test [2] (50 µM) it was 0.139; in test [2] (200 µM) it was -0.0438.
Consider MED16 C539 (UniProt Q9Y2X0), for which the “log2 mean competition ratio” value in test [1] (50 µM) was 0.138; in test [1] (200 µM) it was -0.168; in test [2] (50 µM), 0.132; in test [2] (200 µM), 0.0433.
For the target MOCS2 C10, the “log2 mean competition ratio” value is -0.00443 in test [1] (50 µM), -0.414 in test [1] (200 µM), 0.376 in test [2] (50 µM) and -0.364 in test [2] (200 µM).
Consider MED14 C708 (UniProt O60244), for which the “log2 mean competition ratio” value was -0.187 in test [1] (50 µM), -0.377 in test [1] (200 µM), 0.534 in test [2] (50 µM) and -0.346 in test [2] (200 µM).
Regarding MED12 C1651 (UniProt Q93074), the “log2 mean competition ratio” value in test [1] (50 µM) was -0.0977; in test [1] (200 µM), -0.0527; in test [2] (50 µM), -0.2; in test [2] (200 µM), -0.166.

(Values after the supplement of paper PMC11732987, “Enantioselective OTUD7B fragment discovery through chemoproteomics screening and high-throughput optimisation” (Communications Chemistry, 2025).)
